These are yes or no findings as the source states them, for the method shown. Binding seen in cells or lysates may run through a third protein. A result given as binding can be weak or reduced; the word gives no strength.
Tests used:
[1] = target: E-cadherin (human (endogenous in T84)); experiment: co-IP; anti-E-cadherin antibody (2 µg/ml, overnight, 4°C) and protein A-agarose on RIPA lysates (400 µg) of T84 cells; IFNγ 10 ng/ml 24 h, control or Fyn siRNA; immunoblot
[2] = target: E-cadherin (human (endogenous in T84)); experiment: co-IP; anti-E-cadherin immunoprecipitation from T84 cells lysed in high-salt-containing buffer; unstimulated or IFNγ-treated; immunoblot
[3] = target: E-cadherin (human (endogenous in T84)); experiment: co-IP; anti-E-cadherin antibody (monoclonal, C-terminal epitope) and protein A-agarose on detergent-free low-salt (hypotonic Buffer A) lysates of T84 cells; unstimulated, IFNγ 10 ng/ml 6 h, IFNγ + PP1 125 nM; immunoblot

binding [1] | binding [2] | binding [3] | Binder
binds |  |  | E3 ubiquitin ligase Hakai (enzyme, UniProt Q75N03 1-491) MDHTDNELQGTNSSGSLGGLDVRRRIPIKLISKQANKAKPAPRTQRTINRMPAKAPPGDEEGFDYNEEERYDCKGGELFANQRRFPGHLFWDFQINILGEKDDTPVHFCDKCGLPIKIYGRMIPCKHVFCYDCAILHEKKGDKMCPGCSDPVQRIEQCTRGSLFMCSIVQGCKRTYLSQRDLQAHINHRHMRAGKPVTRASLENVHPPIAPPPTEIPERFIMPPDKHHMSHIPPKQHIMMPPPPLQHVPHEHYNQPHEDIRAPPAELSMAPPPPRSVSQETFRISTRKHSNLITVPIQDDSNSGAREPPPPAPAPAHHHPEYQGQPVVSHPHHIMPPQQHYAPPPPPPPPISHPMPHPPQAAGTPHLVYSQAPPPPMTSAPPPITPPPGHIIAQMPPYMNHPPPGPPPPQHGGPPVTAPPPHHYNPNSLPQFTEDQGTLSPPFTQPGGMSPGIWPAPRGPPPPPRLQGPPSQTPLPGPHHPDQTRYRPYYQ
 | binds | binds | p120-catenin (protein, UniProt O60716 1-968) MDDSEVESTASILASVKEQEAQFEKLTRALEEERRHVSAQLERVRVSPQDANPLMANGTLTRRHQNGRFVGDADLERQKFSDLKLNGPQDHSHLLYSTIPRMQEPGQIVETYTEEDPEGAMSVVSVETSDDGTTRRTETTVKKVVKTVTTRTVQPVAMGPDGLPVDASSVSNNYIQTLGRDFRKNGNGGPGPYVGQAGTATLPRNFHYPPDGYSRHYEDGYPGGSDNYGSLSRVTRIEERYRPSMEGYRAPSRQDVYGPQPQVRVGGSSVDLHRFHPEPYGLEDDQRSMGYDDLDYGMMSDYGTARRTGTPSDPRRRLRSYEDMIGEEVPSDQYYWAPLAQHERGSLASLDSLRKGGPPPPNWRQPELPEVIAMLGFRLDAVKSNAAAYLQHLCYRNDKVKTDVRKLKGIPVLVGLLDHPKKEVHLGACGALKNISFGRDQDNKIAIKNCDGVPALVRLLRKARDMDLTEVITGTLWNLSSHDSIKMEIVDHALHALTDEVIIPHSGWEREPNEDCKPRHIEWESVLTNTAGCLRNVSSERSEARRKLRECDGLVDALIFIVQAEIGQKDSDSKLVENCVCLLRNLSYQVHREIPQAERYQEAAPNVANNTGPHAASCFGAKKGKDEWFSRGKKPIEDPANDTVDFPKRTSPARGYELLFQPEVVRIYISLLKESKTPAILEASAGAIQNLCAGRWTYGRYIRSALRQEKALSAIADLLTNEHERVVKAASGALRNLAVDARNKELIGKHAIPNLVKNLPGGQQNSSWNFSEDTVISILNTINEVIAENLEAAKKLRETQGIEKLVLINKSGNRSEKEVRAAALVLQTIWGYKELRKPLEKEGWKKSDFQVNLNNASRSQSSHSYDDSTLPLIDRNQKSDKKPDREEIQMSNMGSNTKSLDNNYSTPNERGDHNRTLDRSGDLGDMEPLKGTTPLMQDEGQESLEEELDVLVLDDEGGQVSYPSMQKI
